Consider 3 substances from paper PMC5338925.

The chains behind the UniProt entries cited, without tags or fusion partners. Where a name states a change or a piece, a line headed by the entry shows the natural chain unless it says otherwise. A line that says so, or that is headed by a name, gives the form on record, which may keep a tag or linker. Residues count along the entry.
Nup98 (endogenous) (human (endogenous in HEK293T and HeLa)) (P52948, residues 1-880): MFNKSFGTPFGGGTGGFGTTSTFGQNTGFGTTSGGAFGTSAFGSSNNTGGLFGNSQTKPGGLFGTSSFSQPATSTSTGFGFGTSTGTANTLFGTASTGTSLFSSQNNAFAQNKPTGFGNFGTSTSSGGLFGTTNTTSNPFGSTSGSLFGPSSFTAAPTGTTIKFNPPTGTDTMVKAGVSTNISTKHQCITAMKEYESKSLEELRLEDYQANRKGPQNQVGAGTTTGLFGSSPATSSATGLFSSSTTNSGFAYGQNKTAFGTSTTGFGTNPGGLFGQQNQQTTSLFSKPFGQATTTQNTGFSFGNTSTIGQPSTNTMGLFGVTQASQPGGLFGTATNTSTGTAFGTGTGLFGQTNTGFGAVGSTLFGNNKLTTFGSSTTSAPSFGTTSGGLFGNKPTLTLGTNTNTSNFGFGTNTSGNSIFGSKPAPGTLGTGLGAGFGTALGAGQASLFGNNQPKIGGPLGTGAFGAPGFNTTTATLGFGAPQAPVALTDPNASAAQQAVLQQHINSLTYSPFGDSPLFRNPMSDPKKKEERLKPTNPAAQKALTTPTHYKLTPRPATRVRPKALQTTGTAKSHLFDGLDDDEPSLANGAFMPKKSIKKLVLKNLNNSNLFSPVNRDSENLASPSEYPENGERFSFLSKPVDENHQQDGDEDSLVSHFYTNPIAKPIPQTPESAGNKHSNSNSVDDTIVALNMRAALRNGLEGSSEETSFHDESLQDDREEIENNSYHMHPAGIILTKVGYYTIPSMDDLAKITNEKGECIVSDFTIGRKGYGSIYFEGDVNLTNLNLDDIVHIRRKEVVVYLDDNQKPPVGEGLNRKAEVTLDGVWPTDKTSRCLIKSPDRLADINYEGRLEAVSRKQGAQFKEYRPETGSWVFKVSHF
GST-Nup98^1–863 (P52948, form named): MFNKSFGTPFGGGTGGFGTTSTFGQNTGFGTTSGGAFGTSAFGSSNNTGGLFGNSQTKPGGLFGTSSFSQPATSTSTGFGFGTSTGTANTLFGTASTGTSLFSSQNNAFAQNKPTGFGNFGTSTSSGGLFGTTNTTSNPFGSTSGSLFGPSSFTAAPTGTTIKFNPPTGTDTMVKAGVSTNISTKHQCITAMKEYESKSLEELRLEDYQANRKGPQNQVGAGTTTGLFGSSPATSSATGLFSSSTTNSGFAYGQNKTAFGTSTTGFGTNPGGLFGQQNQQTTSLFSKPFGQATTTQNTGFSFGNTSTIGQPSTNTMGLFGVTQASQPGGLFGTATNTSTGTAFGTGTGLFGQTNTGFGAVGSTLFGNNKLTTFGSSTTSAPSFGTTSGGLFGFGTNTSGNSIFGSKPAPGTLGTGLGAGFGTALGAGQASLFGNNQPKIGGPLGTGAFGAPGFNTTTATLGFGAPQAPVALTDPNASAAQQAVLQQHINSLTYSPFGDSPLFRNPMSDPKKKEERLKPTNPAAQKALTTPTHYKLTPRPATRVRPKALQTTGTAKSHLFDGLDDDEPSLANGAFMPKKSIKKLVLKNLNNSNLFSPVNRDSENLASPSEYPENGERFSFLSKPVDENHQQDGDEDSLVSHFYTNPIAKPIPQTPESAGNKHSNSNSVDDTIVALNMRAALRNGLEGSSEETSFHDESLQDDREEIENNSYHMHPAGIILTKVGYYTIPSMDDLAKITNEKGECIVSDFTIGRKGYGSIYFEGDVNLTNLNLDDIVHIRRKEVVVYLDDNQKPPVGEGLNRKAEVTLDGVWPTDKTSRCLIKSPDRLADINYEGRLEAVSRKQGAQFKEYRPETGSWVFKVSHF
UniProt Q00839: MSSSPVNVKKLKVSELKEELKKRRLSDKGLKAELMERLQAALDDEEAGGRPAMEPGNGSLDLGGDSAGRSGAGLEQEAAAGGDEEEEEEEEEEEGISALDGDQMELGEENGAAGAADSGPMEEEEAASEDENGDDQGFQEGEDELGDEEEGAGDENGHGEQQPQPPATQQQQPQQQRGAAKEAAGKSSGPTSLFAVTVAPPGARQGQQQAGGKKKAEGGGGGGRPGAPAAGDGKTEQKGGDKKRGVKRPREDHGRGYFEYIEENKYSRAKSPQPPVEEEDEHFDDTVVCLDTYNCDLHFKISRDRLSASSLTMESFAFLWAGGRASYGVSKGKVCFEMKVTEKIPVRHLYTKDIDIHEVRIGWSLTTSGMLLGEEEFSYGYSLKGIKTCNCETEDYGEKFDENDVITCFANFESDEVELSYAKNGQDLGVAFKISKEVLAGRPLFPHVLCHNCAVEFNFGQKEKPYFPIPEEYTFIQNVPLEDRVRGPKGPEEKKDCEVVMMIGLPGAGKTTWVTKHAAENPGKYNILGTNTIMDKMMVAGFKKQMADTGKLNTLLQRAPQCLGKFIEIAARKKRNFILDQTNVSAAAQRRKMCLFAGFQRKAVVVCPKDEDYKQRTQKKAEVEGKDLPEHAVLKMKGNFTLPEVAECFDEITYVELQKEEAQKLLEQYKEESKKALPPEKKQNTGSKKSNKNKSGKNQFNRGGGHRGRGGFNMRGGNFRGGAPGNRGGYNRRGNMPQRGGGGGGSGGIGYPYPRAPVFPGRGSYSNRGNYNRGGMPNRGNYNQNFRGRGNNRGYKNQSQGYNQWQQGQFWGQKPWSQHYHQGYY
UniProt Q08211: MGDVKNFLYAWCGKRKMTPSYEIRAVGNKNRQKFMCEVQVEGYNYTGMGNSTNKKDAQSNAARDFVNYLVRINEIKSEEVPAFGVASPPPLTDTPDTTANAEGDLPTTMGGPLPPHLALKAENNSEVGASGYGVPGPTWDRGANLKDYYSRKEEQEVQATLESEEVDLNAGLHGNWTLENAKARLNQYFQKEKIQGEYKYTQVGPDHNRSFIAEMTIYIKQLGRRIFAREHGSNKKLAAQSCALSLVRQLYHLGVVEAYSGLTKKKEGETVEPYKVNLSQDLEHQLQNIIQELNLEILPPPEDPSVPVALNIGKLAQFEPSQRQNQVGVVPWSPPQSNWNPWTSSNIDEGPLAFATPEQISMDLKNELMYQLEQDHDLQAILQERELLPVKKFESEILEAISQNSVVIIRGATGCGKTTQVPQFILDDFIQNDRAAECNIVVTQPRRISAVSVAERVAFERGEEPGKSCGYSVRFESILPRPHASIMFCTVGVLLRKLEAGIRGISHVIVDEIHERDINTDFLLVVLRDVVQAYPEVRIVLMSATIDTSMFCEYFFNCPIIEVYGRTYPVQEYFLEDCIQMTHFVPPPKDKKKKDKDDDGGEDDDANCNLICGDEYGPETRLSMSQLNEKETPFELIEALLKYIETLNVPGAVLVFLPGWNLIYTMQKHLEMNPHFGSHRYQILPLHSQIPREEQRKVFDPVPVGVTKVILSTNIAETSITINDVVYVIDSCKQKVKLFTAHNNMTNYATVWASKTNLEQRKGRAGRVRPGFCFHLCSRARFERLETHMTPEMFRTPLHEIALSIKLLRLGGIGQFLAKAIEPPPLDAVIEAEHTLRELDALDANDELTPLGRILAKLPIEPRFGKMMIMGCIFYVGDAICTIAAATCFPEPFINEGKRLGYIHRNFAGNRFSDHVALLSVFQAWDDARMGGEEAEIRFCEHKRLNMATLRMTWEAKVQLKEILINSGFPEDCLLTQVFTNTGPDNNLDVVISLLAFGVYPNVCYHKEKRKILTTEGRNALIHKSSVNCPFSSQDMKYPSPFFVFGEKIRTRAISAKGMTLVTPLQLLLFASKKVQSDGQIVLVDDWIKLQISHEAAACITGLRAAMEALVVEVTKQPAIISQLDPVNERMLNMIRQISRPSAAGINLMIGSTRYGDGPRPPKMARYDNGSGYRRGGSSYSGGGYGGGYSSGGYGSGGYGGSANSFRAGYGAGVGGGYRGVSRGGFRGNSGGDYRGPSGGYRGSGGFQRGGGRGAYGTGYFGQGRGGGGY

No constants are given. Whether binding was seen depends on the method and setting. For some assays here: In cells and extracts the contact can be indirect. Some results given as binding are weak or reduced against the parent protein; the word gives no strength.

Experiment [1] has as its target GST-Nup98^1–863 (human) (UniProt P52948). In words: bead halo assay; GST-Nup98 1-863 held on glutathione magnetic agarose beads (bait); DHX9 domains with C-terminal eGFP (prey) detected by fluorescence microscopy; PBS-T, 10 min, 4 °C; pre-treated with RNase A, poly I:C RNA or buffer alone; both purified.
The target of experiment [2] is hnRNP U (endogenous) (human (endogenous in HEK293T)) (UniProt Q00839). In words: co-IP; endogenous Nup98, DHX9 and hnRNP U immunoprecipitated with specific antibodies from whole cell lysates (NP-40 cell lysis buffer, 250 mM NaCl); anti-GFP as control; western blot. (Immunoblotting shows a protein as a band on a membrane.)
Experiment [3] has as its target DHX9 (endogenous) (human (endogenous in HEK293T and HeLa)) (UniProt Q08211). Described as above.
Experiment [4] shares this target. In words: co-IP; Nup98 or DHX9 immunoprecipitated from the nucleoplasmic fraction of HeLa cell nuclei; 125 mM NaCl, 0.5% NP-40 washes; western blot.
Experiment [5] has as its target Nup98 (endogenous) (human (endogenous in HEK293T and HeLa)) (UniProt P52948). In words: co-IP; Nup98 affinity purified from HEK293T lysate (with RNase inhibitor); bead-bound complexes incubated with or without RNase A at 37 °C for 30 min; western blot.

For “DHX9 381–820 tagged with eGFP (from UniProt Q08211 381-820) (domain or fragment)”, the binding result in experiment [1] is “no binding”.

“Nup98 (endogenous) (from UniProt P52948 1-880)”: the binding result in experiment [2], in experiment [3] and in experiment [4] was “binds” throughout.

For PRKDC (from UniProt P78527 1-4128), the binding entry in experiment [5] is “binds”.
